Measured data: PubChem BioAssay AID1259405 (NCATS, 2018)

Purpose: 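Knock-downs that lift recombinant protein yield in hamster ovary cells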 (primary screen)
Cell system: Chinese hamster CHO-K1 ovary cells with stable secreted eGFP expression
Knock-down reagent: single siRNA against mouse genes, 0.8 pmol siRNA per well (2 µl of 400 nM stock)
Time to read-out: 3 days
Measurement: 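Per-well intracellular GFP measured by laser scanning cytometry, plus viability from ATP luminescence, each relative to plate median of non-targeting control wells, in %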
Direction: GFP, % of control: higher = more GFP per well, higher productivity; viability (ATP), % of control: higher = more viable cells (more ATP)
Rule for the call: 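a knock-down is called active if GFP reaches 120% or more of non-targeting control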
Shown is a random part of about 50,000 deposited reagents. Over the whole deposit, about 4,000 (8%) got an active call. 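Mouse siRNA library applied to hamster cells; one well for each siRNA.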 Unmarked entries are inactive. The numbers tell different reagents against one gene apart.

gene symbol	reagent no.	GFP, % of control	viability (ATP), % of control
Nabp2	1	142 (active)	87.5
Nabp2	2	91.8	61.6
Nabp2	3	51.8	46.8
Or4c102	1	66.2	69.8
Or4c102	2	53	74.2
Or4c102	3	50	96.5
Cacng8	1	67.3	103
Cacng8	2	33.6	45.9
Cacng8	3	52.3	55.2
Vrk2	1	70.8	63.1
Vrk2	2	99.2	86.1
Vrk2	3	71.1	73.7
Otos	1	92	53.9
Otos	2	99.3	65.3
Otos	3	81.2	42.7
Uroc1	1	56.5	28.6
Uroc1	2	55	78.1
Uroc1	3	114	131
Cxcl5	1	50.9	55
Cxcl5	2	88.7	64.5
Osbpl5	1	66.9	89.2
Osbpl5	2	89.9	65.3
Osbpl5	3	220 (active)	168
Osbpl5	4	83.8	103
Osbpl5	5	115	100
Osbpl5	6	104	92.1
Rnf141	1	104	82.7
Rnf141	2	54.4	69.1
Rnf141	3	83.6	86.2
Spdl1	1	53.4	62.9
Spdl1	2	44.9	30.9
Spdl1	3	75.4	50.8
Prmt6	1	102	79.4
Prmt6	2	84.7	105
Prmt6	3	118	99.2
Klf17	1	86	76.1
Klf17	2	75.7	65.1
Klf17	3	80.8	92.7
Tbc1d24	1	122 (active)	72.8
Tbc1d24	2	90.2	63.5
Tbc1d24	3	46	60.6
Ift56	1	88.8	70.1
Ift56	2	73.2	74.3
Ift56	3	59	74.9
Romo1	1	155 (active)	102
Romo1	2	69.3	65.6
Romo1	3	65.9	98.1
Kcng3	1	72.4	64.5
Kcng3	2	84.5	65.3
Kcng3	3	65	66.9
Tmprss6	1	57.5	76.9
Tmprss6	2	19	17.5
Tmprss6	3	69.1	83.3
Tbc1d31	1	101	97.5
Tbc1d31	2	73.4	81.8
Tbc1d31	3	130 (active)	64.7
Trp53inp1	1	97.6	92.4
Trp53inp1	2	109	96.3
Trp53inp1	3	140 (active)	102
Atp5pf	1	74.9	77
Atp5pf	2	60.5	96.5
Atp5pf	3	68	83.8
Acss2	1	37.4	79.4
Acss2	2	71.7	70.1
Acss2	3	202 (active)	140
Smoc2	1	61.8	52.8
Smoc2	2	46	53.9
Smoc2	3	53.2	66.8
Pgc	1	178 (active)	128
Pgc	2	75.9	78.8
Pgc	3	77.3	72.8
Nucb2	1	132 (active)	122
Nucb2	2	94.9	89.5
Erg28	1	97.5	100
Erg28	2	70.9	45.2
Erg28	3	125 (active)	97.8
Pls3	1	65.4	61
Pls3	2	89.9	86.7
Fosb	1	94	81
Fosb	2	69.1	68.9
Fosb	3	88.9	79.2
Tk1	1	78.9	62.2
Tk1	2	79.7	68.8
Tk1	3	121 (active)	86.9

Copied from the list:
Result for Atp5pf #3 in “GFP, % of control”: 68
Under “viability (ATP), % of control”, Nabp2 #2 shows 61.6
For “GFP, % of control”, Or4c102 #2 shows 53
Under “viability (ATP), % of control”, Erg28 #2 shows 45.2
Value of Acss2 #1 under “viability (ATP), % of control”: 79.4
Entry for Rnf141 #2 in “GFP, % of control”: 54.4
